Some of these results come from one statement about several compounds together. Starred links: 1 amine or outer side, 2 acyl side, 3 side chain; linkers in the order of their positions; H or OH if unused. Positions of bridges follow the written chain, without caps; N, C: chain ends. Non-standard residues stand in square brackets, D forms with d. Residues, ends and D or L forms follow the SMILES beside them. ξ: configuration not given here. *: point of attachment. Bip(4'-(3-HOOC-benzamido)) = N[C@@H](Cc1ccc(-c2ccc(NC(=O)c3cccc(C(=O)O)c3)cc2)cc1)C(=O)O; X2 = O=C(O)c1ccc(CNC(=O)c2cccc(-c3ccc(C[C@H](N[*:1])C(=O)[*:2])cc3)c2)cc1; X38 = O=C(O)C1CCC(C(=O)Nc2ccc(-c3ccc(C[C@H](N[*:1])C(=O)[*:2])cc3)cc2)CC1; X79 = O=C(O)C1CCCC(C(=O)Nc2ccc(-c3ccc(C[C@H](N[*:1])C(=O)[*:2])cc3)cc2)C1; X40 = O=C(O)C1CCCCC1C(=O)Nc1ccc(-c2ccc(C[C@H](N[*:1])C(=O)[*:2])cc2)cc1; Bip(4'-NH) = O=C([C@H](Cc1ccc(-c2ccc(N[*:3])cc2)cc1)N[*:1])[*:2]; X14 = O=C([C@H](Cc1ccc(-c2cccc(C(=O)[*:3])c2)cc1)N[*:1])[*:2]; Bip(4'-COOH) = N[C@@H](Cc1ccc(-c2ccc(C(=O)O)cc2)cc1)C(=O)O; Bip(4'-NHAc) = CC(=O)Nc1ccc(-c2ccc(C[C@H](N)C(=O)O)cc2)cc1; Ala(morpholin-4-yl) = N[C@@H](CN1CCOCC1)C(=O)O; Benzoyl(3-OCH2COOH) = O=C(O)COc1cccc(C(=O)*)c1; Phe(3-CONH2) = NC(=O)c1cccc(C[C@H](N)C(=O)O)c1; Bip = N[C@@H](Cc1ccc(-c2ccccc2)cc1)C(=O)O; Ala(2-furyl) = N[C@@H](Cc1ccco1)C(=O)O; Ala(4-THP) = N[C@@H](CC1CCOCC1)C(=O)O; X15 = O=C(O)c1cccc(Oc2ccccc2N*)c1; Cya = N[C@@H](CS(=O)(=O)O)C(=O)O; 2Thi = N[C@@H](Cc1cccs1)C(=O)O; Cha = N[C@@H](CC1CCCCC1)C(=O)O; Chg = N[C@H](C(=O)O)C1CCCCC1; Tle = CC(C)(C)[C@H](N)C(=O)O; ξV = CC(C)C(N)C(=O)O; Sar = CNCC(=O)O
The compounds below were run against TNFα (Homo sapiens, UniProt P01375) (assay: TNF-Induced HEK-Blue Assay). Details: summary statement for all examples; read-out: IC50 values measured in the TNF induced HEK-Blue assay.
Type: cell-based

The chains behind the UniProt entries cited, without tags or fusion partners. Residues count along the entry.
UniProt P01375, 77-233 limits assumed: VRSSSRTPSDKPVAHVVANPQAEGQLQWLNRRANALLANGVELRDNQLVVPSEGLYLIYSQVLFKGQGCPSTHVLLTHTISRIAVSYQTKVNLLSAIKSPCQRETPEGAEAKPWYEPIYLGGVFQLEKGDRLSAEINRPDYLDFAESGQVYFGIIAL

IC50, ≤ 25 µM:
CC[C@H](C)[C@@H]1NC(=O)[C@@H]2CCCN2C(=O)[C@H]([C@@H](C)CC)NC(=O)[C@@H](CCCNC(=N)N)NC(=O)[C@H](CC(=O)O)NC(=O)[C@H](Cc2ccco2)NC(=O)CN(C)C(=O)[C@H](Cc2ccc(-c3ccc(NC(C)=O)cc3)cc2)NC(=O)[C@H](Cc2ccc(-c3ccccc3)cc2)NC(=O)[C@H](C(C)(C)C)NC(=O)CSC[C@@H](C(=O)NCC(N)=O)NC(=O)[C@H](CC(C)C)NC(=O)[C@H](Cc2ccc(O)cc2)NC1=O [Example 298] ({CH2CO}-[Tle][Bip][Bip(4'-NHAc)][Sar][Ala(2-furyl)]D[dR]IPIYLCG-NH2; thioether N-13)
CC[C@H](C)[C@@H]1NC(=O)[C@@H]2CCCN2C(=O)[C@H]([C@@H](C)CC)NC(=O)[C@@H](CCCNC(=N)N)NC(=O)[C@H](CC(=O)O)NC(=O)[C@@H]2CCCN2C(=O)CN(C)C(=O)[C@H](Cc2ccc(-c3ccc(NC(C)=O)cc3)cc2)NC(=O)[C@H](Cc2ccc(-c3ccc(C(=O)O)cc3)cc2)NC(=O)[C@H](C(C)(C)C)NC(=O)CSC[C@@H](C(=O)NCC(N)=O)NC(=O)[C@H](CC(C)C)NC(=O)[C@H](Cc2ccc(O)cc2)NC1=O [Example 300] ({CH2CO}-[Tle][Bip(4'-COOH)][Bip(4'-NHAc)][Sar]PD[dR]IPIYLCG-NH2; thioether N-13)
CC(=O)Nc1ccc(-c2ccc(C[C@@H]3NC(=O)[C@H](Cc4ccc(-c5ccccc5)cc4)NC(=O)[C@H](CC4CCCCC4)NC(=O)CSC[C@@H](C(=O)NCC(N)=O)NC(=O)[C@H](CC(C)C)NC(=O)[C@H](Cc4cnc[nH]4)NC(=O)[C@H](C4CCCCC4)NC(=O)[C@@H]4CCCN4C(=O)[C@H](CC(N)=O)NC(=O)[C@@H](CCCNC(=N)N)NC(=O)[C@H](CC(=O)O)NC(=O)[C@H](Cc4cnc[nH]4)NC(=O)CN(C)C3=O)cc2)cc1 [Example 301] ({CH2CO}-[Cha][Bip][Bip(4'-NHAc)][Sar]HD[dR]NP[Chg]HLCG-NH2; thioether N-13)
CC(C)C[C@@H]1NC(=O)[C@H](CCCNC(=N)N)NC(=O)C(C(C)C)NC(=O)[C@@H]2CCCN2C(=O)[C@H](C(C)C)NC(=O)[C@@H](CCCNC(=N)N)NC(=O)[C@H](CC(=O)O)NC(=O)[C@@H]2CCCN2C(=O)CN(C)C(=O)[C@H](Cc2ccc(-c3cccc(C(=O)NCc4ccc(C(=O)O)cc4)c3)cc2)NC(=O)[C@H](Cc2ccc(-c3ccccc3)cc2)NC(=O)[C@H](CC2CCOCC2)NC(=O)CSC[C@@H](C(=O)NCC(N)=O)NC1=O (stereo partly shown) [Example 303] ({CH2CO}-[Ala(4-THP)][Bip][X2][Sar]PD[dR]VP[ξV]RLCG-NH2; thioether N-13)
CC[C@H](C)[C@@H]1NC(=O)[C@@H](CCCNC(=N)N)NC(=O)[C@H](CC(=O)O)NC(=O)[C@H](Cc2cnc[nH]2)NC(=O)CN(C)C(=O)[C@H](Cc2ccc(-c3ccc(NC(=O)c4cccc(C(=O)O)c4)cc3)cc2)NC(=O)[C@H](Cc2ccc(-c3ccccc3)cc2)NC(=O)[C@H](CC2CCCCC2)NC(=O)CSC[C@@H](C(=O)NCC(N)=O)NC(=O)[C@H](CC(C)C)NC(=O)[C@H](Cc2cnc[nH]2)NC(=O)[C@H](C(C)C)NC(=O)[C@@H]2CCCN2C1=O [Example 305] ({CH2CO}-[Cha][Bip][Bip(4'-(3-HOOC-benzamido))][Sar]HD[dR]IPVHLCG-NH2; thioether N-13)
CC(C)C[C@@H]1NC(=O)[C@H](CCCNC(=N)N)NC(=O)[C@H](C(C)C)NC(=O)[C@@H]2CCCN2C(=O)[C@H](C(C)C)NC(=O)[C@@H](CCCNC(=N)N)NC(=O)[C@H](CC(=O)O)NC(=O)[C@@H]2CCCN2C(=O)CN(C)C(=O)[C@H](Cc2ccc(-c3cccc(C(=O)Nc4ccccc4Oc4cccc(C(=O)O)c4)c3)cc2)NC(=O)[C@H](Cc2ccc(-c3ccccc3)cc2)NC(=O)[C@H](CN2CCOCC2)NC(=O)CSC[C@@H](C(=O)NCC(N)=O)NC1=O [Example 306] ({CH2CO}-[Ala(morpholin-4-yl)][Bip][X14](X15)[Sar]PD[dR]VPVRLCG-NH2; thioether N-13)
CC[C@H](C)[C@@H]1NC(=O)[C@@H](CCCNC(=N)N)NC(=O)[C@H](CC(=O)O)NC(=O)[C@H](Cc2cnc[nH]2)NC(=O)CN(C)C(=O)[C@H](Cc2ccc(-c3ccc(NC(=O)c4cccc(OCC(=O)O)c4)cc3)cc2)NC(=O)[C@H](Cc2ccc(-c3ccccc3)cc2)NC(=O)[C@H](CC2CCCCC2)NC(=O)CSC[C@@H](C(=O)NCC(N)=O)NC(=O)[C@H](CC(C)C)NC(=O)[C@H](Cc2cnc[nH]2)NC(=O)[C@H](C(C)C)NC(=O)[C@@H]2CCCN2C1=O [Example 308] ({CH2CO}-[Cha][Bip][Bip(4'-NH)](Benzoyl(3-OCH2COOH))[Sar]HD[dR]IPVHLCG-NH2; thioether N-13)
CC(=O)Nc1ccc(-c2ccc(C[C@@H]3NC(=O)[C@H](Cc4ccc(-c5ccccc5)cc4)NC(=O)[C@H](CC4CCCCC4)NC(=O)CSC[C@@H](C(=O)NCC(N)=O)NC(=O)[C@H](CC(C)C)NC(=O)[C@H](Cc4ccc(O)cc4)NC(=O)[C@H](C(C)C)NC(=O)[C@@H]4CCCN4C(=O)[C@H](C(C)C)NC(=O)[C@@H](CCCNC(=N)N)NC(=O)[C@H](CS(=O)(=O)O)NC(=O)[C@@H]4CCCN4C(=O)CN(C)C3=O)cc2)cc1 [Example 309] ({CH2CO}-[Cha][Bip][Bip(4'-NHAc)][Sar]P[Cya][dR]VPVYLCG-NH2; thioether N-13)
CC(=O)Nc1ccc(-c2ccc(C[C@@H]3NC(=O)[C@H](Cc4ccc(-c5ccccc5)cc4)NC(=O)[C@H](CC4CCCCC4)NC(=O)CSC[C@@H](C(=O)NCC(N)=O)NC(=O)[C@H](CC(C)C)NC(=O)[C@H](Cc4ccc(O)cc4)NC(=O)[C@H](C4CCCCC4)NC(=O)[C@@H]4CCCN4C(=O)[C@H](C(C)C)NC(=O)[C@@H](CCCNC(=N)N)NC(=O)[C@H](CC(=O)O)NC(=O)[C@@H]4CCCN4C(=O)CN(C)C3=O)cc2)cc1 [Example 310] ({CH2CO}-[Cha][Bip][Bip(4'-NHAc)][Sar]PD[dR]VP[Chg]YLCG-NH2; thioether N-13)
CC(=O)Nc1ccc(-c2ccc(C[C@@H]3NC(=O)[C@H](Cc4ccc(-c5ccccc5)cc4)NC(=O)[C@H](CN4CCOCC4)NC(=O)CSC[C@@H](C(=O)NCC(N)=O)NC(=O)[C@H](CC(C)C)NC(=O)[C@H](Cc4cccc(C(N)=O)c4)NC(=O)[C@H](C(C)C)NC(=O)[C@@H]4CCCN4C(=O)[C@H](C(C)C)NC(=O)[C@@H](CCCNC(=N)N)NC(=O)[C@H](CC(=O)O)NC(=O)[C@@H]4CCCN4C(=O)CN(C)C3=O)cc2)cc1 [Example 311] ({CH2CO}-[Ala(morpholin-4-yl)][Bip][Bip(4'-NHAc)][Sar]PD[dR]VPV[Phe(3-CONH2)]LCG-NH2; thioether N-13)
CC(=O)Nc1ccc(-c2ccc(C[C@@H]3NC(=O)[C@H](Cc4ccc(-c5ccccc5)cc4)NC(=O)[C@H](CN4CCOCC4)NC(=O)CSC[C@@H](C(=O)NCC(N)=O)NC(=O)[C@H](CC(C)C)NC(=O)[C@H](Cc4cccc(C(N)=O)c4)NC(=O)[C@H](C4CCCCC4)NC(=O)[C@@H]4CCCN4C(=O)[C@H](C(C)C)NC(=O)[C@@H](CCCNC(=N)N)NC(=O)[C@H](CC(=O)O)NC(=O)[C@@H]4CCCN4C(=O)CN(C)C3=O)cc2)cc1 [Example 312] ({CH2CO}-[Ala(morpholin-4-yl)][Bip][Bip(4'-NHAc)][Sar]PD[dR]VP[Chg][Phe(3-CONH2)]LCG-NH2; thioether N-13)
CC(=O)Nc1ccc(-c2ccc(C[C@@H]3NC(=O)[C@H](Cc4ccc(-c5ccc(C(=O)O)cc5)cc4)NC(=O)[C@H](CN4CCOCC4)NC(=O)CSC[C@@H](C(=O)NCC(N)=O)NC(=O)[C@H](CC(C)C)NC(=O)[C@H](Cc4cccc(C(N)=O)c4)NC(=O)[C@H](C(C)C)NC(=O)[C@@H]4CCCN4C(=O)[C@H](C(C)C)NC(=O)[C@@H](CCCNC(=N)N)NC(=O)[C@H](CC(=O)O)NC(=O)[C@@H]4CCCN4C(=O)CN(C)C3=O)cc2)cc1 [Example 313] ({CH2CO}-[Ala(morpholin-4-yl)][Bip(4'-COOH)][Bip(4'-NHAc)][Sar]PD[dR]VPV[Phe(3-CONH2)]LCG-NH2; thioether N-13)
CC(=O)Nc1ccc(-c2ccc(C[C@@H]3NC(=O)[C@H](Cc4ccc(-c5ccc(C(=O)O)cc5)cc4)NC(=O)[C@H](CN4CCOCC4)NC(=O)CSC[C@@H](C(=O)NCC(N)=O)NC(=O)[C@H](CC(C)C)NC(=O)[C@H](Cc4cccs4)NC(=O)[C@H](C4CCCCC4)NC(=O)[C@@H]4CCCN4C(=O)[C@H](C(C)C)NC(=O)[C@@H](CCCNC(=N)N)NC(=O)[C@H](CC(=O)O)NC(=O)[C@@H]4CCCN4C(=O)CN(C)C3=O)cc2)cc1 [Example 314] ({CH2CO}-[Ala(morpholin-4-yl)][Bip(4'-COOH)][Bip(4'-NHAc)][Sar]PD[dR]VP[Chg][2Thi]LCG-NH2; thioether N-13)
CC[C@H](C)[C@@H]1NC(=O)[C@@H](CCCNC(=N)N)NC(=O)[C@H](CC(=O)O)NC(=O)[C@H](Cc2cnc[nH]2)NC(=O)CN(C)C(=O)[C@H](Cc2ccc(-c3ccc(NC(=O)C4CCC(C(=O)O)CC4)cc3)cc2)NC(=O)[C@H](Cc2ccc(-c3ccccc3)cc2)NC(=O)[C@H](CC2CCCCC2)NC(=O)CSC[C@@H](C(=O)NCC(N)=O)NC(=O)[C@H](CC(C)C)NC(=O)[C@H](Cc2cnc[nH]2)NC(=O)[C@H](C(C)C)NC(=O)[C@@H]2CCCN2C1=O (stereo partly shown) [Example 316] ({CH2CO}-[Cha][Bip][X38][Sar]HD[dR]IPVHLCG-NH2; thioether N-13)
CC[C@H](C)[C@@H]1NC(=O)[C@@H](CCCNC(=N)N)NC(=O)[C@H](CC(=O)O)NC(=O)[C@H](Cc2cnc[nH]2)NC(=O)CN(C)C(=O)[C@H](Cc2ccc(-c3ccc(NC(=O)C4CCCC(C(=O)O)C4)cc3)cc2)NC(=O)[C@H](Cc2ccc(-c3ccccc3)cc2)NC(=O)[C@H](CC2CCCCC2)NC(=O)CSC[C@@H](C(=O)NCC(N)=O)NC(=O)[C@H](CC(C)C)NC(=O)[C@H](Cc2cnc[nH]2)NC(=O)[C@H](C(C)C)NC(=O)[C@@H]2CCCN2C1=O (stereo partly shown) [Example 317] ({CH2CO}-[Cha][Bip][X79][Sar]HD[dR]IPVHLCG-NH2; thioether N-13)
CC[C@H](C)[C@@H]1NC(=O)[C@@H](CCCNC(=N)N)NC(=O)[C@H](CC(=O)O)NC(=O)[C@H](Cc2cnc[nH]2)NC(=O)CN(C)C(=O)[C@H](Cc2ccc(-c3ccc(NC(=O)C4CCCCC4C(=O)O)cc3)cc2)NC(=O)[C@H](Cc2ccc(-c3ccccc3)cc2)NC(=O)[C@H](CC2CCCCC2)NC(=O)CSC[C@@H](C(=O)NCC(N)=O)NC(=O)[C@H](CC(C)C)NC(=O)[C@H](Cc2cnc[nH]2)NC(=O)[C@H](C(C)C)NC(=O)[C@@H]2CCCN2C1=O (stereo partly shown) [Example 318] ({CH2CO}-[Cha][Bip][X40][Sar]HD[dR]IPVHLCG-NH2; thioether N-13)
